{
  "sequences": {"note": "Chains of the proteins cited; added tags and fusions are not shown. Residues count along the entry.", "UniProt P35952, residues 22-879": "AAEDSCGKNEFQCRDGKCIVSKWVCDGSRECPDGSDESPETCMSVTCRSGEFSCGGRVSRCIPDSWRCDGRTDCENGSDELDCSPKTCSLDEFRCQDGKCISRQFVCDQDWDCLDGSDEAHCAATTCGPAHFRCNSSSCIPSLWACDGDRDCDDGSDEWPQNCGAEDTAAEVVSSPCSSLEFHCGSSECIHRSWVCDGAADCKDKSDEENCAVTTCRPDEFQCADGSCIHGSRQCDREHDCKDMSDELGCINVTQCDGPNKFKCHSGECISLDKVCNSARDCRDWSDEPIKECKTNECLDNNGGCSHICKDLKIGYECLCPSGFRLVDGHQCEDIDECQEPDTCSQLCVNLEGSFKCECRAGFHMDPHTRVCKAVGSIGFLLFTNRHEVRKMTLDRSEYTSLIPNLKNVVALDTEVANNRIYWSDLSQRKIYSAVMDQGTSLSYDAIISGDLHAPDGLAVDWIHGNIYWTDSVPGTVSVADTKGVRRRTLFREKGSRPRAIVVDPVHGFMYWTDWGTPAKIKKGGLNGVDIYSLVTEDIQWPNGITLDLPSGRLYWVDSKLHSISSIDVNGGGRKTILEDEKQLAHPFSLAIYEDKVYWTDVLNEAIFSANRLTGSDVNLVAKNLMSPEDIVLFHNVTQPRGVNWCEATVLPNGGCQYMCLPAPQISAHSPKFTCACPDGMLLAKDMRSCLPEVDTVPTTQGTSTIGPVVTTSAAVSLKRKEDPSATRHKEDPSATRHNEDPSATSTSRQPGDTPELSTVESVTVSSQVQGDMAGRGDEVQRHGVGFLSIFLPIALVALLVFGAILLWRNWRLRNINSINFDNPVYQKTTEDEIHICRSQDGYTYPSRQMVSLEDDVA"},
  "source": "patent US20130108548A1",
  "about": "(VECT HORUS, published 2013)",
  "binders": {"B1": {"name": "Fc-SEQ ID NO: 31 (fusion) (Fc fusion, not shown: a dimerising Fc or GST)", "chain": "CMPRLRGC"}},
  "molecular_target": "rat LDLR on rat brain capillary endothelial cells (RBCEC) (rat) (UniProt P35952)",
  "test": "binding/uptake on live rat BCEC of the in vitro BBB model, different concentrations, 30 min",
  "note": "No constants are given. Whether binding was seen depends on the method and setting. Some binding calls cover weakened binding; strength is not graded here. Tags and fused reporters may be left off the sequences shown.",
  "data": [
    {"binder": "B1", "values": [
      {"measurement": "binding", "result": "binds"}
    ]}
  ]
}
